# In all, about 580,000 compounds went through this assay and about 6,100 (1.1%) were called active. The shares of active, inactive and inconclusive entries below differ from those in the screen. The call rests on the fitted dose curve; in most records, active means well fitted inhibition curve with a large enough effect; inconclusive means small, poorly fitted or top-dose-only effect, or another doubt; inactive means no such curve, though single readings can be large or run the other way. Potencies beside an inconclusive call are fits to weak or partial responses and may not hold up.
# Amino acid sequences for entries named in this document (tags omitted).
# UniProt P18054, whole entry, looked up: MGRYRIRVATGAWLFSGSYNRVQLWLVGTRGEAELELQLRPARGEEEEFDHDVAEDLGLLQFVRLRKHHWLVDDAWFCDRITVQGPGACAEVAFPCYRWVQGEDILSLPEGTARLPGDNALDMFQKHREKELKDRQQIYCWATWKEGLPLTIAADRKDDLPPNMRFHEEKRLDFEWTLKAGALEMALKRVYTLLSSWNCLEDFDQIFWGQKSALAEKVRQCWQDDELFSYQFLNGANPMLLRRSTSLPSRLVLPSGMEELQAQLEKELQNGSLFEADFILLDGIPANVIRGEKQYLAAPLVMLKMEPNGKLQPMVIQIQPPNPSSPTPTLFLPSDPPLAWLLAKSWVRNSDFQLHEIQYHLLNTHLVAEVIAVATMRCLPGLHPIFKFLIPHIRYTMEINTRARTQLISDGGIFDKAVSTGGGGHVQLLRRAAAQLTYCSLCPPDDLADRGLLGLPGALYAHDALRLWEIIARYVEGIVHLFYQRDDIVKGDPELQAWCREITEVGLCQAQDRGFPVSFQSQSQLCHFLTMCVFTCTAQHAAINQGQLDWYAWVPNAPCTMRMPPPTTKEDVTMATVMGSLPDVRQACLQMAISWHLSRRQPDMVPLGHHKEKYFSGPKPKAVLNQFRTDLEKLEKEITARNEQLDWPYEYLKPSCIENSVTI
# Target: Polyunsaturated fatty acid lipoxygenase ALOX12 (Homo sapiens) (UniProt P18054)
# Experiment: Primary qHTS assay for inhibitors of human arachidonate 12S-lipoxygenase (ALOX12): Round 2
# Conditions: purified 12hLO, xylenol orange hydroperoxide absorbance; activity change, negative = inhibition: at 108 µM (top of the series) unless noted
# Method in brief: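 Hydroperoxide product was detected by ferrous iron/xylenol orange as the 573 to 405 nm absorbance ratio. Arachidonic acid at 40 uM (final) was turned over for 30 min at room temperature by 150 nM human 12hLO, pH 7.0 Hepes buffer, after 15 min compound preincubation.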
# On the % scale 0 is the no-effect control and ±100 the full control effect; potency means the concentration at half of the fitted maximal effect.
SMILES,Potency,"activity change, negative = inhibition"
O=C1CCCC(=O)C1C1c2ccccc2CCN1C(=O)CCl (configuration not stated),"inconclusive: 126 µM [inhibitor, partial curve, poor fit]",
Cc1cc(NCc2ccncc2)ccc1Br,"inconclusive: 5.62 µM [inhibitor, full curve, poor fit]",
CC(/C=N/n1c(-c2ccccn2)n[nH]c1=S)=C\c1ccccc1,"inconclusive: 126 µM [inhibitor, partial curve, poor fit]",
CC(=O)Nc1ccc(N(C(=O)c2cnccn2)C(C(=O)NC2CCCCC2)c2ccc(F)cc2)cc1 (configuration not stated),"inconclusive: 0.355 µM [inhibitor, full curve, poor fit]",
COc1cc(CN2CCCCCC2)cc(OC)c1OC,"inconclusive: 0.708 µM [inhibitor, full curve, poor fit]",
CC1=C(C(=O)Nc2ccccc2)C(c2ccccn2)n2nc(SCc3ccccc3)nc2N1 (configuration not stated),,inactive: -27.7%
COc1ccc2cc(-c3cccnc3)ncc2c1,"inconclusive: 0.708 µM [inhibitor, full curve, poor fit]",
COCCCNc1cc(Cl)nc2ccnn12,"inconclusive: 25.1 µM [inhibitor, full curve, poor fit]",
CN1CC(=O)N(C2CNC2)Cc2c1ncnc2N1CCCCC1,,inactive: 69.5%
COc1ccc(NC(=O)Cc2cc(Cl)c3c(c2)OCCCO3)cc1S(=O)(=O)N(C)C,"inconclusive: 0.355 µM [inhibitor, full curve, poor fit]",
O=C(Nc1nc(-c2ccc(Oc3ccccc3)cc2)cs1)C1=COCCO1,"inconclusive: 79.4 µM [inhibitor, partial curve, poor fit]",
COC(=O)c1cc(F)c(-n2cncn2)c(F)c1,,inactive: 9.36%
COc1ccc(NC(=S)NCc2ccccc2Cl)c(OC)c1,"inconclusive: 22.4 µM [inhibitor, single point]",
Cc1ccccc1-c1[nH]nc2ncc(-c3cccc(O)c3)nc12,"inconclusive: 70.8 µM [inhibitor, partial curve]",
Cc1ccc(C(C)NC(=O)Nc2ccc(Cl)cc2F)cc1C (configuration not stated),,inactive: -1.95%
COc1cc(/C=C2/C(=O)NN(c3cccc(Cl)c3)C2=O)cc(OC)c1O,,inactive: -20.5%
O=C(NCCN1CCOCC1)c1ccc(-c2ccccc2)cc1,,inactive: 17.2%
CC(C)CC(=O)N1CCc2nnc([C@@H]3C[C@@H](O)CN3C)n2CC1,"inconclusive: 3.16 µM [inhibitor, full curve, poor fit]",
CC1CCN(c2ccc3c(c2)S(=O)(=O)c2ccccc2C3=O)CC1,,inactive: -2.28%
C=CCN(c1ccccc1)S(=O)(=O)c1cccc(C(=O)N(CC)CC(=O)Nc2c(F)cccc2F)c1,"inconclusive: 112 µM [inhibitor, single point]",
COc1ccc(NC(=O)/C(C#N)=C/c2ccc3c(c2)n(C)c(=O)n3C)cc1,"inconclusive: 2.82 µM [inhibitor, full curve, poor fit]",
Cc1ccc(NC(=O)c2ccc(Cn3cc(Br)cn3)o2)cc1,"inconclusive: 3.16 µM [inhibitor, full curve, poor fit]",
Cn1c(=S)oc2ccccc21,,inactive: 242%

# Reprinted from the listing (two entries):
SMILES,Potency,"activity change, negative = inhibition"
COCCCNc1cc(Cl)nc2ccnn12,"inconclusive: 25.1 µM [inhibitor, full curve, poor fit]",
CN1CC(=O)N(C2CNC2)Cc2c1ncnc2N1CCCCC1,,inactive: 69.5%

# Additional records

SMILES,Potency,"activity change, negative = inhibition"
Cc1c(C(C)(C)C)sc(=N)n1C,active: 44.7 µM,
COCC(=O)N1CCN(C(=O)Nc2ccccc2)C[C@H]1C(=O)N[C@H](Cc1c[nH]c2ccccc12)C(N)=O,,inconclusive: -32.9% [inhibitor]
Cc1cc(C)cc(OCCN2CCOCC2)c1,"inconclusive: 0.447 µM [inhibitor, full curve, poor fit]",
O=C(CSc1nc(-c2ccccc2)c(-c2ccccc2)o1)NCCCO,"inconclusive: 126 µM [inhibitor, single point]",
CC(C)Cc1ccc(C(Nc2ccc3nnnn3n2)c2cccs2)cc1 (configuration not stated),"inconclusive: 11.2 µM [inhibitor, full curve, poor fit]",
COc1ccc(CNCCc2ccc([N+](=O)[O-])cc2)c(OC)c1OC,active: 7.94 µM,
O=C(O)CCNS(=O)(=O)c1cccc(C(=O)O)c1,"inconclusive: 35.5 µM [inhibitor, partial curve]",
COc1ccc(C(=O)Oc2c(Sc3ccccc3)c(C)nn2-c2ccccc2)c(OC)c1,"inconclusive: 3.55 µM [inhibitor, full curve, poor fit]",
CC(C)OC(=O)/C(C#N)=C/c1ccc(-c2ccccc2Cl)o1,"inconclusive: 8.91 µM [inhibitor, full curve, poor fit]",
COc1ccc(-c2csc(NC(=S)NC(=O)c3ccc(S(=O)(=O)N(C)C)cc3)n2)cc1OC,"inconclusive: 4.47 µM [inhibitor, full curve, poor fit]",
O=C(O)/C=C/C(=O)c1ccc(F)cc1,"inconclusive: 39.8 µM [inhibitor, partial curve, poor fit]",
CCN1CCN(Cc2ccccc2CNCc2cccc(C#N)c2)CC1,"inconclusive: 25.1 µM [inhibitor, partial curve, poor fit]",
COc1cc(OC)cc(C(=O)NCCNc2nc3cc(C)cc(C)c3cc2C#N)c1,"inconclusive: 44.7 µM [inhibitor, partial curve, poor fit]",
CCCCCC1=CCC/C1=N\NC(=O)C(N)=O,,inactive: -19.6%
CC(=O)c1cccc(NC(=O)c2ccc(-n3cncn3)c3ccoc23)c1,"inconclusive: 44.7 µM [inhibitor, partial curve, poor fit]",
S=C(NCCCN1CCOCC1)N1CCN(c2nc(-c3ccc(Cl)cc3)cs2)CC1,"inconclusive: 44.7 µM [inhibitor, partial curve, poor fit]",
Clc1ccccc1C1=CC(c2ccco2)n2nnnc2N1 (configuration not stated),"inconclusive: 56.2 µM [inhibitor, partial curve, poor fit]",
CC(C)C(NC(=O)c1ccoc1)c1ccc(F)cc1 (configuration not stated),"inconclusive: 39.8 µM [inhibitor, partial curve, poor fit]",
Cc1ccc(-n2c(O)cnc2Nc2nc(C)cc(C)n2)cc1,"inconclusive: 7.94 µM [inhibitor, partial curve, poor fit]",
CCOc1ccc(Oc2ccc(Cl)cc2NC(=O)C2=COCCO2)cc1,"inconclusive: 4.47 µM [inhibitor, full curve, poor fit]",
O=C(Cc1cccs1)Nc1nnc(Cc2ccccc2)s1,active: 44.7 µM,
O=C(Cn1nc(C(=O)O)c2ccccc2c1=O)Nc1ccccc1Cc1ccccc1,"inconclusive: 44.7 µM [inhibitor, single point]",
CC1(c2ccccc2)NC(=O)N(CC(=O)N(c2ccccc2)C2CCS(=O)(=O)C2)C1=O (configuration not stated),"inconclusive: 112 µM [inhibitor, partial curve, poor fit]",

SMILES,Potency,"activity change, negative = inhibition"
c1nc(N2CCCCC2)c2[nH]cnc2n1,"inconclusive: 20 µM [inhibitor, partial curve, poor fit]",
O=C(O)c1ccc(/C=C2\SC(=S)N(Nc3ccccc3)C2=O)cc1,,inactive: -20.8%
CC(C)c1ccc(/C=N/Nc2cc(N3CCOCC3)nc(N3CCOCC3)n2)cc1,,inactive: 8.6%
Oc1oc(-c2ccccc2)nc1C=NCc1ccncc1,"inconclusive: 17.8 µM [inhibitor, full curve, poor fit]",
COc1cc(/C=C(\CC(=O)O)c2nc3ccccc3s2)cc(OC)c1O,active: 35.5 µM,
COc1ccc([C@H]2N[C@]3(CCCN(Cc4ccc(C(F)(F)F)cc4)C3=O)[C@H]3C(=O)N(C)C(=O)[C@@H]23)cc1,"inconclusive: 44.7 µM [inhibitor, partial curve, poor fit]",
CC(C)NC(=O)/C(C#N)=C\c1cccc(/C=C(/C#N)C(=O)NC(C)C)c1,"inconclusive: 39.8 µM [inhibitor, partial curve, poor fit]",
O=[N+]([O-])c1ccc(-n2nnnc2-c2ccccc2)cc1,,inactive: -5.64%
Cc1ccccc1NC(=O)C1c2cccc[n+]2CC(=O)N1Cc1ccc2c(c1)OCO2 (configuration not stated),"inconclusive: 39.8 µM [inhibitor, partial curve, poor fit]",
O=[N+]([O-])c1cc(/C=N/O)ccc1Oc1cccc(Cl)c1,"inconclusive: 79.4 µM [inhibitor, partial curve, poor fit]",
Cc1ccc(-c2csc3nnc(SCC(=O)Nc4cccc(C)n4)n23)cc1,,inactive: -20.9%
CCOc1ccccc1NC(=S)NC1CCCCC1,"inconclusive: 50.1 µM [inhibitor, partial curve, poor fit]",
CCOc1ccc2oc(-c3ccccc3)c(C(=O)O)c2c1,"inconclusive: 50.1 µM [inhibitor, partial curve, poor fit]",
Cc1ccc(C(=O)N2CCC3(CC2)NC(=O)N(c2ccccc2)N3)cc1F,active: 3.98 µM,
O=C(O)C1Cc2ccccc2CN1C(=O)CCl (configuration not stated),"inconclusive: 1.12 µM [inhibitor, partial curve, poor fit]",
CC(=O)c1cccc(NC(=O)/C=C/c2ccc([N+](=O)[O-])s2)c1,,inactive: -10.5%
S=C(c1ccccc1)N1CCN(c2ccccc2)CC1,,inactive: -8.12%
Cc1ccc(/C=C2\SC(=S)N(NS(=O)(=O)c3ccc(C)cc3)C2=O)cc1,active: 35.5 µM,
Cc1ccc(C2(C)NC(=O)N(CC(=O)Nc3nc(-c4ccccn4)cs3)C2=O)cc1 (configuration not stated),"inconclusive: 28.2 µM [inhibitor, partial curve, poor fit]",
C(=N\N1CCN(C(c2ccccc2)c2ccccc2)CC1)/c1ccc2c(c1)OCO2,"inconclusive: 100 µM [inhibitor, single point]",
CN(C)C(=O)c1ccc(-c2nc(Nc3ccc(F)cc3)c3ccccc3n2)cc1,"inconclusive: 6.31 µM [inhibitor, full curve, poor fit]",

# 15 structures already listed, arranged by length of the SMILES, descending:
SMILES,Potency,"activity change, negative = inhibition"
COc1ccc([C@H]2N[C@]3(CCCN(Cc4ccc(C(F)(F)F)cc4)C3=O)[C@H]3C(=O)N(C)C(=O)[C@@H]23)cc1,"inconclusive: 44.7 µM [inhibitor, partial curve, poor fit]",
Cc1ccc(C2(C)NC(=O)N(CC(=O)Nc3nc(-c4ccccn4)cs3)C2=O)cc1 (configuration not stated),"inconclusive: 28.2 µM [inhibitor, partial curve, poor fit]",
Cc1ccccc1NC(=O)C1c2cccc[n+]2CC(=O)N1Cc1ccc2c(c1)OCO2 (configuration not stated),"inconclusive: 39.8 µM [inhibitor, partial curve, poor fit]",
Cc1ccc(/C=C2\SC(=S)N(NS(=O)(=O)c3ccc(C)cc3)C2=O)cc1,active: 35.5 µM,
CN(C)C(=O)c1ccc(-c2nc(Nc3ccc(F)cc3)c3ccccc3n2)cc1,"inconclusive: 6.31 µM [inhibitor, full curve, poor fit]",
CC(=O)c1cccc(NC(=O)/C=C/c2ccc([N+](=O)[O-])s2)c1,,inactive: -10.5%
Cc1ccc(C(=O)N2CCC3(CC2)NC(=O)N(c2ccccc2)N3)cc1F,active: 3.98 µM,
Cc1ccc(-c2csc3nnc(SCC(=O)Nc4cccc(C)n4)n23)cc1,,inactive: -20.9%
COc1cc(/C=C(\CC(=O)O)c2nc3ccccc3s2)cc(OC)c1O,active: 35.5 µM,
O=[N+]([O-])c1cc(/C=N/O)ccc1Oc1cccc(Cl)c1,"inconclusive: 79.4 µM [inhibitor, partial curve, poor fit]",
O=[N+]([O-])c1ccc(-n2nnnc2-c2ccccc2)cc1,,inactive: -5.64%
CCOc1ccc2oc(-c3ccccc3)c(C(=O)O)c2c1,"inconclusive: 50.1 µM [inhibitor, partial curve, poor fit]",
Oc1oc(-c2ccccc2)nc1C=NCc1ccncc1,"inconclusive: 17.8 µM [inhibitor, full curve, poor fit]",
O=C(O)C1Cc2ccccc2CN1C(=O)CCl (configuration not stated),"inconclusive: 1.12 µM [inhibitor, partial curve, poor fit]",
CCOc1ccccc1NC(=S)NC1CCCCC1,"inconclusive: 50.1 µM [inhibitor, partial curve, poor fit]",

# — PubChem BioAssay AID1671190 (National Center for Advancing Translational Sciences (NCATS), 2021)
